For one molecule, binding results are on record in publication PMC3244432.

By UniProt entry, the sequences of proteins in these tests, tags left out.
UniProt Q15691: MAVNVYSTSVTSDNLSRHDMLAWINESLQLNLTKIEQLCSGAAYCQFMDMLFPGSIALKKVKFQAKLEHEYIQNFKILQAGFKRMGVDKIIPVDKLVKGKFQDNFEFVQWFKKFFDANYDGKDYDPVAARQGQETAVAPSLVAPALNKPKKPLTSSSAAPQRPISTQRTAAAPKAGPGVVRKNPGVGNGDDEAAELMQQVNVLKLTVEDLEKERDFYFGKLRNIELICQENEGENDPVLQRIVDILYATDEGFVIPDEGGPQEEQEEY

These are yes or no findings as the source states them, for the method shown. Binding seen in cells or lysates may run through a third protein. Some binding calls cover weakened binding; strength is not graded here.

The experiment has as its target GST-EB1 (UniProt Q15691). The experiment in a line: pull-down; GST-EB1 on glutathione-agarose beads pre-incubated with saturating amounts of antibody 1A11 or non-specific IgG 4 U, washed, then used in precipitations from NRK-52E cell extracts (or extracts of cells expressing GFP-APC-C3); SDS-PAGE and Western blotting; only the target purified.

B1: MCAK (protein, UniProt Q62909 1-671)
chain: MIDIDDVAAINPELVQLLPLRPKDSLPLQENVTIPKQKRKSVNSKIPGPKEGLRSRSTRISTVSEVRIPAQENEMEVELPVSTNSRKPFPIHTGHPRPSCSTVTELPLLMISEEAEEQAHSTRSTSSANPGNSVRRKSCIVKEMEKMKNKREEKRAQNSEIRIKRAQEYDNSFPNWEFARMIKEFRVTMDCNPLTVTDPIEEHRICVCVRKRPLNKQELAKKEIDVISVPSKCLLLVHEPKLKVDLTKYLENQAFCFDFAFDETASNEVVYRFTARPLVQTIFEGGKATCFAYGQTGSGKTHTMGGDLSGKSQNASKGIYAMASRDVFLLKNQPRYRSLNLEVYVTFFEIYNGKVFELLNKKAKLRVLEDSKQQVQVVGLQEYLVTCADDVIKMINMGSACRTSGQTFANSNSSRSHACFQILLRAKGRLHGKFSLVDLAGNERGADTSSADRQTRMEGAEINKSLLALKESIRALGQNKAHTPFRESKLTQVLRDSFIGENSRTCMIAMISPGISSCEYTLNTLRYADRVKELSPHSGPSGEQAVQMETEEMDASSHGASLTGNEEEELSSQMSSFNEAMTQIRELEERAMEELREIIQQGPSWLELSEMTDQPDYDLETFVNKAESALTQQAKQAKHFSALQEVIKALRLAMQLEEQASKQINSKKRHQ
In the case of B1, the binding entry is “binds”.
